System: gene expression of IL-6, TNFα and CCL2 in the brains of S1 mice
Conditions: mouse, in vivo

COc1cc2c(cc1OC)C(=O)C(CC1CCN(Cc3ccccc3)CC1)C2.Cl (stereo not drawn) [donepezil, 2-[(1-benzyl-4-piperidyl)methyl]-5,6-dimethoxyindan-1-one hydrochloride]
tended to decrease: expression of CCL2 in the brains of the S1 mice | expression of IL-6 in the brains of the S1 mice | expression of TNFα in the brains of the S1 mice
